Experimental data taken from US11535597B2, “Photoreactive ligands and uses thereof” (The Scripps Research Institute, priority 2017, dated 2022).
Some results were stated once for a whole list of compounds, not compound by compound. Some compounds share one range, which may span the group rather than tell each member.

Target: T1, cathepsin B (CTSB) (Homo sapiens, UniProt P07858)
T1 construct: endogenous in cells; host or cells: HEK293T
Assay: Mapping and competition of FFF probe-modified peptide on cathepsin B (CTSB)
Assay type: binding
Procedure: Preparation and analysis was adapted from methods previously reported. In brief, for global mapping of fragment probe-modified peptides, separate 10 cm dishes of cells were treated with probes (200-250 μM) in 3.0 mL of DMEM (serum-free) and (if applicable) competitor ligands, proteomes harvested and subjected to click chemistry conditions with either light or heavy isotopically labeled biotin-TEV-azide (10 μL of 5 mM stocks in DMSO, final concentration=100 μM), TCEP, ligand and CuSO4 as detailed above. The samples were allowed to react for 1 h at which point the samples were centrifuged (16,000 g, 5 min, 4° C.). The resulting pellets were sonicated in ice-cold methanol (500 μL) and the resuspended light- and heavy-labeled samples were then combined and centrifuged (16,000 g, 5 min, 4° C.). The pellets were then solubilized in PBS containing 1.2% SDS (1 mL) with sonication and heating (5 min, 95° C.). Samples were transferred to falcon tubes containing DPBS (5 mL), to which a 100 μL of streptavidin-agarose beads slurry was added. […]
The resulting probe-modified peptides were collected for MS analysis, which was performed as described above with differences in the salt bumps applied in the chromatographic gradients which in this case were 0%, 30%, 60%, 90% and 100% NH4OAc (500 μM). […] The isoTOP ratios for probe labeled peptides were quantified using the in-house software CIMAGE. […]

C#CCCC1(CCC(=O)NC2N=C(c3ccccc3)c3ccccc3NC2=O)N=N1 (centres unmarked) [probe 2, 3-(3-(But-3-yn-1-yl)-3H-diazirin-3-yl)-N-(2-oxo-5-phenyl-2,3-dihydro-1H-benzo[e][1,4]diazepin-3-yl)propanamide]
Labeled Peptide (P07858 CTSB Cathepsin B): 315-331 | Labeled Peptide (protein CTSB Cathepsin B, residues of probe-labeled peptide): 315-331
